Results as given in PMC9346556.

Chains of the proteins cited; added tags and fusions are not shown. Lines headed by an entry give the natural chain unless they say otherwise; changes in a name come on top.
UniProt A0A509AL46: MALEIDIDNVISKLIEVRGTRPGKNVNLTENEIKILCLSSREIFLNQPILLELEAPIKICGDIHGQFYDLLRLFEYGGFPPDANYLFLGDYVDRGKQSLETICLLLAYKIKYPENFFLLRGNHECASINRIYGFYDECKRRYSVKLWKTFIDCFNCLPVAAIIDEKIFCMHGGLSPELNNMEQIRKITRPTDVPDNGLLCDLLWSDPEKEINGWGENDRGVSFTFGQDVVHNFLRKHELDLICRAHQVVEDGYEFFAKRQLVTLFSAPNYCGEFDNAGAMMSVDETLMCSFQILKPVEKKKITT
UniProt A0A509AJP0: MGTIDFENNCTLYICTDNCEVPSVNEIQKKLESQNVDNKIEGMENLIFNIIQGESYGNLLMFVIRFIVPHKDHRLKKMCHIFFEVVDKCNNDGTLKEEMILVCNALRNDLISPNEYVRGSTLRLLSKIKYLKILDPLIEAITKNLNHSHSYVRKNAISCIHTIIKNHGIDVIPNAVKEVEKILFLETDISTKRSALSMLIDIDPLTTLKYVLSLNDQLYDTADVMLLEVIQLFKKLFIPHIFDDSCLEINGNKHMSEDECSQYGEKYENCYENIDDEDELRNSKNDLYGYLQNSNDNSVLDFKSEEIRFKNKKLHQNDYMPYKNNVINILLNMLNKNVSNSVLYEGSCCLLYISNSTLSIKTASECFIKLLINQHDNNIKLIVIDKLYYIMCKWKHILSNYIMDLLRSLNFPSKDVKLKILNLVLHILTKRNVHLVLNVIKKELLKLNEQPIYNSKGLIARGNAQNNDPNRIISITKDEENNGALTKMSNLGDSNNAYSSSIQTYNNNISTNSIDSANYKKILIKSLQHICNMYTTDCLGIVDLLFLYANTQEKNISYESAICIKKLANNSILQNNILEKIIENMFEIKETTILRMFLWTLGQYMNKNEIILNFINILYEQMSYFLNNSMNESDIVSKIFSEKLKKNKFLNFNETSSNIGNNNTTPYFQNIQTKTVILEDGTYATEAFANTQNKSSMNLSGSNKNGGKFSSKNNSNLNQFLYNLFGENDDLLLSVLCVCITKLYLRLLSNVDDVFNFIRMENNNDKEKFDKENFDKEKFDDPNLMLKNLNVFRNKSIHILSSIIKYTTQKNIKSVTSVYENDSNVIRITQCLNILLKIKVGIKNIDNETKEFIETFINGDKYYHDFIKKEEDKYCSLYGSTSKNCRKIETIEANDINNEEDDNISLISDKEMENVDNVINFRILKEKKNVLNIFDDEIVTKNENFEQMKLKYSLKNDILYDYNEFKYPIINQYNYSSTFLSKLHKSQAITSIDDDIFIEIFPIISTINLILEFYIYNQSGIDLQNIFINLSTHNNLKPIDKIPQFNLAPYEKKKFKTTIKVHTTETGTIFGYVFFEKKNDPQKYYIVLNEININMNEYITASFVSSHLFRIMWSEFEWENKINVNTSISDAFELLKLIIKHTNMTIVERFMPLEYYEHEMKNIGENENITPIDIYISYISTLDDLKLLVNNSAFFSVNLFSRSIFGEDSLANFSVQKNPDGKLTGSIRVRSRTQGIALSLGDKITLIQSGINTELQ
UniProt A0A509AG56: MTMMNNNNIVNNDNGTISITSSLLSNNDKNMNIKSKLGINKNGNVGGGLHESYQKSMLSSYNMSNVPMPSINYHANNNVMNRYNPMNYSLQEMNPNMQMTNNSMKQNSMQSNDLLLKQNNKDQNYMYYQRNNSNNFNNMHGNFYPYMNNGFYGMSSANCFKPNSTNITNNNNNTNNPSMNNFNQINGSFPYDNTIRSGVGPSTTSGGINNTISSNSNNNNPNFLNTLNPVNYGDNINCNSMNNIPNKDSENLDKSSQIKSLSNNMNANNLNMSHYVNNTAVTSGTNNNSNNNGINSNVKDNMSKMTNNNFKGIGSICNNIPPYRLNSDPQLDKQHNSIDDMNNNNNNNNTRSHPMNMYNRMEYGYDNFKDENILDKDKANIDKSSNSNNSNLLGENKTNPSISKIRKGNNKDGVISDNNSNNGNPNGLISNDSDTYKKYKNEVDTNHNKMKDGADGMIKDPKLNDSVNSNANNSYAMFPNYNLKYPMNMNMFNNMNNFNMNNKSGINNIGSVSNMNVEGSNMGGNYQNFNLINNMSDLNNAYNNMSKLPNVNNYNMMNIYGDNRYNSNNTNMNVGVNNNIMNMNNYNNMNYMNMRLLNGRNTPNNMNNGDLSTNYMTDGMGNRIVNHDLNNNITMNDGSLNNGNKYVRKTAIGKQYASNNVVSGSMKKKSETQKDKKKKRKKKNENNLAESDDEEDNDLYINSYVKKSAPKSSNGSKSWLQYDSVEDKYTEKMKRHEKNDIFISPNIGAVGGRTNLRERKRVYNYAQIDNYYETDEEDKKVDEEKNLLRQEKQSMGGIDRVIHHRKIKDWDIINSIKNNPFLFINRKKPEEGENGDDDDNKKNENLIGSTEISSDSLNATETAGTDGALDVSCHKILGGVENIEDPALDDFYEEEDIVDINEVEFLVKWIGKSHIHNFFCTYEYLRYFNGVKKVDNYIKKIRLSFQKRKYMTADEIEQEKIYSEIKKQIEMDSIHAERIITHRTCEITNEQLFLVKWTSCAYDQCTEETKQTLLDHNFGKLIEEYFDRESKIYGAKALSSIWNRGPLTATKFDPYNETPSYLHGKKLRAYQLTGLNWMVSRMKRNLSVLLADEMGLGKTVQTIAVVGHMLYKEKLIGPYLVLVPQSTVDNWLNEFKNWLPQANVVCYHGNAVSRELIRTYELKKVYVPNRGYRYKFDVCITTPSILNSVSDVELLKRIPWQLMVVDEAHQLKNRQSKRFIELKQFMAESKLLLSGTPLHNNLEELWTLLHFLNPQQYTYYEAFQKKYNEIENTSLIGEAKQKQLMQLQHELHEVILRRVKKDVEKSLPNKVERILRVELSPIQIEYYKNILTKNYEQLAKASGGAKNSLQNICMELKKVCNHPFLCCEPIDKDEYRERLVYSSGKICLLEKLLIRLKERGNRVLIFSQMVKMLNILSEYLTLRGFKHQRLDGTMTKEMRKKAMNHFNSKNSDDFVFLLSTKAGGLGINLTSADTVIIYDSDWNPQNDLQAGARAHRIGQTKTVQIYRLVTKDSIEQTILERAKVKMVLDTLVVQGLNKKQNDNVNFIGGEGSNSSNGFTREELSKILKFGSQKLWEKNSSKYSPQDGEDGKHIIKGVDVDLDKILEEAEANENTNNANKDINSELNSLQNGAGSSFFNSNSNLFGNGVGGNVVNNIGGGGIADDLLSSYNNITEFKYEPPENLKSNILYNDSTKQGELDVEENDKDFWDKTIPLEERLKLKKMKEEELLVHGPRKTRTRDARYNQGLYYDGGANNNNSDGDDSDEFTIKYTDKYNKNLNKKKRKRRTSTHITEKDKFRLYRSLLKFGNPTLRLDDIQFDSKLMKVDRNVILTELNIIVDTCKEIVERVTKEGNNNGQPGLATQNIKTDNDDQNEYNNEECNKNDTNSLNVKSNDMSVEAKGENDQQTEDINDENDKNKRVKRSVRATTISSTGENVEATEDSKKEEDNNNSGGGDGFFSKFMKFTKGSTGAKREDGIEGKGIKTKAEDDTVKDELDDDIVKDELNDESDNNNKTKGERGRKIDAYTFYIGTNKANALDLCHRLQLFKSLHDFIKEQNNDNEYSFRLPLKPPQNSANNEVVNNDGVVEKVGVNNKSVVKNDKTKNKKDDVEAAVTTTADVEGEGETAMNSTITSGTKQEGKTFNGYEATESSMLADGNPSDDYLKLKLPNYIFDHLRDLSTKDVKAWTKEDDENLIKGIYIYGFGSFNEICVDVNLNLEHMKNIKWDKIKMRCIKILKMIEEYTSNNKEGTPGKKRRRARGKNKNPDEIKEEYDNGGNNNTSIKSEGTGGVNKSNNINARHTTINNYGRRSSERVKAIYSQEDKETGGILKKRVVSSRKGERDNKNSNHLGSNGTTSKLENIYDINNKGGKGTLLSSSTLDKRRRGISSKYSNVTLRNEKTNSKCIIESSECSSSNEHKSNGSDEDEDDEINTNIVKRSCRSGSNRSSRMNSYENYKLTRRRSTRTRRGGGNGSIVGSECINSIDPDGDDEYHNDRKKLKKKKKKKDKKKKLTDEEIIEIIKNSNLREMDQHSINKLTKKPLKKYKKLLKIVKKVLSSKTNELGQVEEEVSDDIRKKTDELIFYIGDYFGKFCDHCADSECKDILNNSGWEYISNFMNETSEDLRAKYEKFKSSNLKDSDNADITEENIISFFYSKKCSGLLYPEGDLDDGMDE

Legend:
[1] = target: T1, PbLRR1-mCherry (endogenous PbLRR1 fused to a C-terminal mCherry tag) (P. berghei); test: affinity purification with mass spectrometry; RFP-Trap beads on soluble extracts of activated gametocytes of the PbLRR1-mCherry line, parental wild type as control; three biological replicates; t-test, FDR < 0.01, S0 = 1
T1 sequence: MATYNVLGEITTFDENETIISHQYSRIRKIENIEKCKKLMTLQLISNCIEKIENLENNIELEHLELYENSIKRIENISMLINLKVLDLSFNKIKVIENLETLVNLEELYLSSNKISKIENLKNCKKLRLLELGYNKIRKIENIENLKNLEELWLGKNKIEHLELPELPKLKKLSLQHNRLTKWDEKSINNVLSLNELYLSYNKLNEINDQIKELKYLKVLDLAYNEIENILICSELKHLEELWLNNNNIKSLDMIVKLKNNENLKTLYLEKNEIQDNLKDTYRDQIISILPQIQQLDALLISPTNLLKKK

[2] = target: T1, PbLRR1-mCherry (endogenous PbLRR1 fused to a C-terminal mCherry tag) (P. berghei); test: affinity purification with mass spectrometry; RFP-Trap beads on soluble extracts of zygotes of the PbLRR1-mCherry line, parental wild type as control; three biological replicates; t-test, FDR < 0.01, S0 = 1

Row | binding [1] | binding [2] | Substance
1 | binds | – | PP1c protein inhibitor 3 (PbI3)
2 | binds | – | PbGEP (Gamete Egress Protein)
3 | binds | – | ISP1 (inner membrane complex protein)
4 | binds | binds | PbPP1c, endogenous (Plasmodium berghei protein phosphatase 1 catalytic subunit) (from UniProt A0A509AL46 1-304) (enzyme)
5 | binds | binds | PBANKA_01014900 (from UniProt A0A509AJP0)
6 | binds | – | PBANKA_0508100 (from UniProt A0A509AG56 1-2673)

Results are given in words; binding and its absence hold for the method and conditions named. In cells and extracts the contact can be indirect. These calls come from enrichment with a bait or labelling near it, and not all partners need be listed. Where a sequence is shown, tags or fusion partners need not be part of it.
